Reference: PubChem BioAssay AID248 (DTP/NCI, 2004)
The list is a part of this screen's results and no random one: it gathers tests that were run many times, whatever their T/C, doses with no T/C, and many T/C values between a quarter and a half above the control. Other doses and runs of a compound stand elsewhere. T/C: endpoint of the treated group in % of that of the vehicle group. Some doses have a count of surviving animals in place of a T/C: the source files T/C as zero there, which appears to mark a toxic dose or a test without result, not a measured value. Some doses without a T/C left all or most animals alive at the check, yet need not have been tolerated: the source hardly ever lists a survival T/C far under the control, and the zero likely stands for such cases as well. Survivors were counted at the toxicity check, usually on the fifth day, unless a day is given; later deaths do not show. Schedules are NCI's codes, taken here to give the interval after Q, in days (D) or hours (H), and the number of doses after X. Some schedule codes hold Z or #, which are not explained here. Some doses were run more than once; their values stand side by side, smallest first. Where survival is the endpoint, the PubChem record calls one and a half times the control and up active, and a quarter to a half above the control has no call in these data; cut-offs in other NCI protocols can differ. Some T/C values are followed by the survivors on the day toxicity was checked, most often the fifth; without a count, all were alive then.

Test system: L1210 leukemia ip in BDF1 mice, survival T/C
Experiment: NCI In Vivo Anticancer Drug Screen. Data for tumor model L1210 Leukemia (intraperitoneal) in B6D2F1 (BDF1) mice
Settings: T/C endpoint: mean survival time, higher T/C = longer survival
[1] = dose: 50.0 mg/kg/injection, schedule: Q01DX001 (ip), vehicle: saline
[2] = dose: 100.0 mg/kg/injection, schedule: Q01DX001 (ip), vehicle: saline
[3] = dose: 200.0 mg/kg/injection, schedule: Q01DX001 (ip), vehicle: saline
[4] = dose: 400.0 mg/kg/injection, schedule: Q01DX001 (ip), vehicle: saline
[5] = dose: 60.0 mg/kg/injection, schedule: Q01DX Z (ip), vehicle: methylcellulose (MC)
[6] = dose: 400.0 mg/kg/injection, schedule: Q04DX002 (ip), vehicle: Klucel (hydroxypropylcellulose) (HPC)
[7] = dose: 400.0 mg/kg/injection, schedule: Q04DX003 (ip), vehicle: saline

Cn1c(CCCC(=O)O)nc2cc(N(CCCl)CCCl)ccc21
T/C (dose: 10.0 mg/kg/injection, schedule: Q01DX009 (ip), vehicle: Klucel (hydroxypropylcellulose) (HPC)): 125 and 137 % of control
T/C (dose: 15.0 mg/kg/injection, schedule: Q01DX009 (ip), vehicle: Klucel (hydroxypropylcellulose) (HPC)): 125 % of control
T/C (dose: 20.0 mg/kg/injection, schedule: Q01DX009 (ip), vehicle: other): 134 % of control
T/C (dose: 20.0 mg/kg/injection, schedule: Q04DX003 (ip), vehicle: other): 128 % of control
T/C (dose: 40.0 mg/kg/injection, schedule: Q01DX001 (ip), vehicle: other): 135 % of control
survivor count (dose: 40.0 mg/kg/injection, schedule: Q01DX009 (ip), vehicle: acetone): 5 of 6
T/C (dose: 40.0 mg/kg/injection, schedule: Q04DX003 (ip), vehicle: Klucel (hydroxypropylcellulose) (HPC)): 127 % of control
T/C (dose: 40.0 mg/kg/injection, schedule: Q04DX003 (ip), vehicle: other): 143 % of control
T/C [1]: 134 % of control
survivor count (dose: 50.0 mg/kg/injection, schedule: Q01DX009 (ip), vehicle: Klucel (hydroxypropylcellulose) (HPC)): 0 of 6
survivor count (dose: 60.0 mg/kg/injection, schedule: Q04DX003 (ip), vehicle: saline): 5 of 6
survivor count (dose: 75.0 mg/kg/injection, schedule: Q01DX009 (ip), vehicle: Klucel (hydroxypropylcellulose) (HPC)): 0 of 6
survivor count (dose: 80.0 mg/kg/injection, schedule: Q01DX009 (ip), vehicle: other): 5 of 6
survivor count (dose: 100.0 mg/kg/injection, schedule: Q01DX001 (ip), vehicle: carboxymethylcellulose (CMC)): 2 of 6
survivor count [2]: 6 of 6
survivor count (dose: 160.0 mg/kg/injection, schedule: Q01DX009 (ip), vehicle: other): 0 of 6
survivor count (dose: 160.0 mg/kg/injection, schedule: Q04DX003 (ip), vehicle: other): 1 of 6 and 3 of 6
survivor count (dose: 200.0 mg/kg/injection, schedule: Q01DX001 (ip), vehicle: carboxymethylcellulose (CMC)): 0 of 6
survivor count [3]: 5 of 6
survivor count (dose: 320.0 mg/kg/injection, schedule: Q04DX003 (ip), vehicle: other): 0 of 6
survivor count (dose: 400.0 mg/kg/injection, schedule: Q01DX001 (ip), vehicle: carboxymethylcellulose (CMC)): 0 of 6
survivor count [4]: 0 of 6

COc1ccc2cnnc(NN)c2c1
survivor count (dose: 150.0 mg/kg/injection, schedule: Q01DX001 (ip), vehicle: other): 3 of 6
survivor count (dose: 300.0 mg/kg/injection, schedule: Q01DX001 (ip), vehicle: other): 0 of 6

C(CC1CO1)C1CO1 (stereo not drawn)
T/C (dose: 16.0 mg/kg/injection, schedule: Q01DX001 (ip), vehicle: acetone): 129 % of control
T/C (dose: 18.0 mg/kg/injection, schedule: Q01DX Z (ip), vehicle: methylcellulose (MC)): 125 % of control
survivor count (dose: 21.0 mg/kg/injection, schedule: Q01DX009 (ip), vehicle: acetone): 3 of 6
T/C (dose: 24.0 mg/kg/injection, schedule: Q01DX009 (ip), vehicle: acetone): 129 % of control
T/C (dose: 27.0 mg/kg/injection, schedule: Q01DX Z (ip), vehicle: methylcellulose (MC)): 143 % of control
T/C (dose: 33.0 mg/kg/injection, schedule: Q01DX009 (ip), vehicle: acetone): 136 % of control
T/C (dose: 36.0 mg/kg/injection, schedule: Q01DX009 (ip), vehicle: acetone): 134 % of control
T/C (dose: 40.0 mg/kg/injection, schedule: Q01DX Z (ip), vehicle: methylcellulose (MC)): 145 % of control
T/C [1]: 136 % of control
T/C (dose: 50.0 mg/kg/injection, schedule: Q04DX003 (ip), vehicle: acetone): 126 % of control
T/C (dose: 54.0 mg/kg/injection, schedule: Q04DX003 (ip), vehicle: acetone): 129 % of control
T/C [5]: 149 % of control
survivor count [5]: 4 of 6
T/C (dose: 66.0 mg/kg/injection, schedule: Q04DX003 (ip), vehicle: saline): 132 % of control
T/C (dose: 75.0 mg/kg/injection, schedule: Q01DX001 (ip), vehicle: saline): 125 % of control
survivor count (dose: 90.0 mg/kg/injection, schedule: Q01DX Z (ip), vehicle: methylcellulose (MC)): 1 of 6
T/C [2]: 133 % of control [3 of 4 alive]
T/C (dose: 100.0 mg/kg/injection, schedule: Q04DX003 (ip), vehicle: saline): 128 and 137 % of control
survivor count (dose: 150.0 mg/kg/injection, schedule: Q01DX009 (ip), vehicle: acetone): 0 of 6
survivor count (dose: 150.0 mg/kg/injection, schedule: Q04DX003 (ip), vehicle: saline sonified): 3 of 6
survivor count (dose: 150.0 mg/kg/injection, schedule: Q04DX003 (ip), vehicle: saline): 3 of 6
survivor count [3]: 0 of 4
survivor count (dose: 200.0 mg/kg/injection, schedule: Q04DX003 (ip), vehicle: acetone): 0 of 6
survivor count (dose: 225.0 mg/kg/injection, schedule: Q01DX009 (ip), vehicle: acetone): 0 of 6
survivor count (dose: 335.0 mg/kg/injection, schedule: Q01DX009 (ip), vehicle: acetone): 0 of 6
survivor count [4]: 0 of 4 and 0 of 6

N#CCc1ccc(Cl)cc1Cl
survivor count (dose: 100.0 mg/kg/injection, schedule: Q04DX002 (ip), vehicle: Klucel (hydroxypropylcellulose) (HPC)): 0 of 3
survivor count (dose: 200.0 mg/kg/injection, schedule: Q04DX002 (ip), vehicle: Klucel (hydroxypropylcellulose) (HPC)): 1 of 3
survivor count [6]: 0 of 3

CN(C)CCCNc1c2ccc(Cl)cc2nc2ccc(O)cc12
survivor count (dose: 50.0 mg/kg/injection, schedule: Q04DX002 (ip), vehicle: saline): 0 of 3
survivor count (dose: 100.0 mg/kg/injection, schedule: Q04DX002 (ip), vehicle: saline): 3 of 3
survivor count (dose: 200.0 mg/kg/injection, schedule: Q04DX002 (ip), vehicle: saline): 0 of 3
survivor count (dose: 400.0 mg/kg/injection, schedule: Q04DX002 (ip), vehicle: saline): 0 of 3

CCC1(O)CC(OC2CC(N(C)C)C(OC3CC(O)C(OC4CC(O)C(O)C(C)O4)C(C)O3)C(C)O2)c2c(cc3c(c2O)C(=O)c2c(O)ccc(O)c2C3=O)C1C(=O)OC (stereo not drawn)
T/C (dose: 25.6 mg/kg/injection, schedule: Q01DX001 (ip), vehicle: saline): 131 % of control
T/C (dose: 51.2 mg/kg/injection, schedule: Q01DX001 (ip), vehicle: saline): 141 % of control

CC1CCCCN1Cc1ccccc1CC(=O)c1ccccc1 (stereo not drawn)
survivor count [6]: 0 of 3

CC1CCCC(C)N1 (stereo not drawn)
survivor count [7]: 6 of 6

Nc1nc2nc(CC(=O)C(=O)O)c(=O)[nH]c2c(=O)[nH]1
survivor count (dose: 25.0 mg/kg/injection, schedule: Q01DX009 (ip), vehicle: saline): 4 of 6
survivor count (dose: 100.0 mg/kg/injection, schedule: Q01DX009 (ip), vehicle: saline): 0 of 6
survivor count (dose: 200.0 mg/kg/injection, schedule: Q04DX003 (ip), vehicle: saline): 2 of 6
survivor count [7]: 0 of 6

C[N+]1(C)C2CCC1CC(=NO)C2
survivor count (dose: 150.0 mg/kg/injection, schedule: Q01DX001 (ip), vehicle: saline): 0 of 6
survivor count (dose: 300.0 mg/kg/injection, schedule: Q01DX001 (ip), vehicle: saline): 0 of 6

O=[N+]([O-])/C=C/c1ccc([N+](=O)[O-])cc1
survivor count (dose: 50.0 mg/kg/injection, schedule: Q01DX005 (ip), vehicle: saline with Tween-80): 3 of 7
survivor count (dose: 100.0 mg/kg/injection, schedule: Q01DX005 (ip), vehicle: saline with Tween-80): 0 of 7
survivor count (dose: 200.0 mg/kg/injection, schedule: Q01DX005 (ip), vehicle: saline with Tween-80): 0 of 7
survivor count (dose: 200.0 mg/kg/injection, schedule: Q01DX009 (ip), vehicle: Klucel (hydroxypropylcellulose) (HPC)): 1 of 6
survivor count (dose: 400.0 mg/kg/injection, schedule: Q01DX005 (ip), vehicle: saline with Tween-80): 1 of 7
survivor count (dose: 400.0 mg/kg/injection, schedule: Q04DX003 (ip), vehicle: Klucel (hydroxypropylcellulose) (HPC)): 3 of 6
